Laboratory results as given in the supplement of paper PMC9744312.
Structures can show the parent of a compound that is named as a salt. The list shows a part of the results. This is a noisy data set.

These compounds were tested on Peyronie's disease tunica albuginea primary fibroblasts (assay: inhibition of TGF-beta1-induced alpha-SMA expression (myofibroblast transformation), relative to TGF-beta1-only and untreated controls; higher = stronger inhibition of myofibroblast transformation). Settings: 10 µM; TGF-beta1 10 ng/mL; 72 h.
With O=C1CC2(CCCC2)CC(=O)N1CCCCN1CCN(c2ncccn2)CC1 [Buspirone HCl] the “inhibition of TGF-beta1-induced alpha-SMA expression” value (from here on “inhibition”) was 16.6%.
For C[C@H](O)C(=O)Nc1c(I)c(C(=O)NC(CO)CO)c(I)c(C(=O)NC(CO)CO)c1I [Iopamidol], the “inhibition” value was -16.8%.
In the case of OC[C@H]1O[C@H](O[C@H]2[C@H](O)[C@@H](O)C(O)O[C@@H]2CO)[C@H](O)[C@@H](O)[C@@H]1O (mixture of isomers) [Maltose], the “inhibition” value is reported as 11.1%.
For COC(=O)N(C)c1c(N)nc(-c2nn(Cc3ccccc3F)c3ncccc23)nc1N [Riociguat (BAY 63-2521)], the “inhibition” value was 4.61%.
In the case of CC[C@H](C)[C@@H]1NC(=O)[C@H](CCCNC(=N)N)NC(=O)[C@H](CC(=O)O)NC(=O)[C@H](CCSC)NC(=O)[C@H](CCCNC(=N)N)NC(=O)CNC(=O)CNC(=O)[C@H](Cc2ccccc2)NC(=O)[C@@H](NC(=O)[C@H](CO)NC(=O)[C@H](CO)NC(=O)[C@H](CCCNC(=N)N)NC(=O)[C@H](CCCNC(=N)N)NC(=O)[C@H](CC(C)C)NC(=O)[C@@H](N)CO)CSSC[C@@H](C(=O)N[C@@H](CC(N)=O)C(=O)N[C@@H](CO)C(=O)N[C@@H](Cc2ccccc2)C(=O)N[C@@H](CCCNC(=N)N)C(=O)N[C@@H](Cc2ccc(O)cc2)C(=O)O)NC(=O)CNC(=O)[C@H](CC(C)C)NC(=O)CNC(=O)[C@H](CO)NC(=O)[C@H](CCC(N)=O)NC(=O)[C@H](C)NC(=O)CNC1=O [Carperitide Acetate], the “inhibition” value is reported as 15.2%.
With Oc1ccc(OCc2ccccc2)cc1 [Monobenzone] the “inhibition” value was 33.6%.
In the case of CNC(=O)[C@H](Cc1c[nH]c2ccccc12)NC(=O)[C@@H](CC(=O)NO)CC(C)C [Ilomastat (GM6001, Galardin)], the “inhibition” value is reported as 30.4%.
With C[C@H]1C[C@H]2[C@@H]3CCC4=CC(=O)C=C[C@]4(C)[C@@]3(F)[C@@H](O)C[C@]2(C)[C@@]1(O)C(=O)CO [Betamethasone] the “inhibition” value was 61.4%.
In the case of CC(=O)Oc1c(C)c(C)c2c(c1C)CCC(C)(CCC[C@H](C)CCC[C@H](C)CCCC(C)C)O2 (stereo not given in full) [Vitamin E Acetate], the “inhibition” value is reported as -8.73%.
For O=C(NCCO[N+](=O)[O-])c1cccnc1 [Nicorandil], the “inhibition” value was -11.8%.
Cc1ccc(Cl)c(Nc2ccccc2C(=O)O)c1Cl [Meclofenamate Sodium] was tested, and the “inhibition” value was 36.5%.
For C=C1/C(=C\C=C2/CCC[C@]3(C)[C@@H]([C@H](C)/C=C/[C@@H](O)C4CC4)CC[C@@H]23)C[C@@H](O)C[C@@H]1O [Calcipotriene], the “inhibition” value was 23.3%.
For CCCN(CCC)C(=O)C1=Cc2ccc(-c3ccc(C(=O)N4CCCC4)cc3)cc2N=C(N)C1 [Motolimod (VTX-2337)], the “inhibition” value was 33.8%.
With CN(C)CCOc1ccc(/C(=C(/CCCl)c2ccccc2)c2ccccc2)cc1 [Toremifene Citrate] the “inhibition” value was 7.22%.
With CCN1CCN(C(=O)N[C@@H](C(=O)N[C@@H]2C(=O)N3C(C(=O)O)=C(CSc4nnnn4C)CS[C@H]23)c2ccc(O)cc2)C(=O)C1=O [Cefoperazone] the “inhibition” value was 7.82%.
CCN1CCN(C(=O)N[C@@H](C(=O)N[C@@H]2C(=O)N3C(C(=O)O)=C(CSc4nnnn4C)CS[C@H]23)c2ccc(O)cc2)C(=O)C1=O [Cefoperazone sodium] was tested, and the “inhibition” value was 21.7%.
For CO[C@@]12[C@H](COC(N)=O)C3=C(C(=O)C(C)=C(N)C3=O)N1C[C@@H]1N[C@@H]12 [Mitomycin C], the “inhibition” value was 84.9%.
CC1=Nc2ccc(Cl)cc2S(=O)(=O)N1 [Diazoxide] was tested, and the “inhibition” value was 20.9%.
In the case of CCn1nc(C(=O)O)c(=O)c2cc3c(cc21)OCO3 [Cinoxacin], the “inhibition” value is reported as 10.4%.
For CCOc1nc2cccc(C(=O)O)c2n1Cc1ccc(-c2ccccc2-c2noc(=O)[nH]2)cc1 [Azilsartan], the “inhibition” value was 8.26%.
For COCCOC(=O)C1=C(C)NC(C)=C(C(=O)OC/C=C/c2ccccc2)C1c1cccc([N+](=O)[O-])c1 (stereo not given) [Cilnidipine], the “inhibition” value was -18.9%.
With COc1cc(O)c(C(=O)Nc2nc(C(=O)NCCN(C(C)C)C(C)C)cs2)cc1OC [Acotiamide hydrochloride] the “inhibition” value was -2.18%.
With COc1cc(O)c(C(=O)Nc2nc(C(=O)NCCN(C(C)C)C(C)C)cs2)cc1OC [Acotiamide] the “inhibition” value was 37.9%.
CC(C)(Oc1ccc(C(=O)c2ccc(Cl)cc2)cc1)C(=O)O [Fenofibric acid] was tested, and the “inhibition” value was 0.917%.
O=C(O)/C=C/c1ccc(Cn2ccnc2)cc1 [Ozagrel HCl] was tested, and the “inhibition” value was 6.33%.
O=C(O)/C=C/c1ccc(Cn2ccnc2)cc1 [Ozagrel] was tested, and the “inhibition” value was 28.2%.
In the case of O=C(O)/C=C/c1ccc(Cn2ccnc2)cc1 [Ozagrel sodium], the “inhibition” value is reported as -14.7%.
In the case of COc1cc2nccc(Oc3ccc(NC(=O)C4(C(=O)Nc5ccc(F)cc5)CC4)cc3)c2cc1OC [Cabozantinib malate (XL184)], the “inhibition” value is reported as -59.1%.
For COc1cc2nccc(Oc3ccc(NC(=O)C4(C(=O)Nc5ccc(F)cc5)CC4)cc3)c2cc1OC, the “inhibition” value was -252%.
With CCCc1nc(C)c2c(=O)nc(-c3cc(S(=O)(=O)N4CCN(CC)CC4)ccc3OCC)[nH]n12 [Vardenafil HCl Trihydrate] the “inhibition” value was 25.6%.
With OC1(c2ccc(Cl)c(C(F)(F)F)c2)CCN(CCCC(c2ccc(F)cc2)c2ccc(F)cc2)CC1 [Penfluridol] the “inhibition” value was over 100%.
For C[C@@H]1C[C@H]2[C@@H]3CCC4=CC(=O)C=C[C@]4(C)[C@@]3(F)[C@@H](O)C[C@]2(C)[C@@]1(O)C(=O)CO [Dexamethasone (DHAP)], the “inhibition” value was 67.5%.
NC(=NCCCCCCN=C(N)N=C(N)Nc1ccc(Cl)cc1)N=C(N)Nc1ccc(Cl)cc1 [Chlorhexidine?2HCl] was tested, and the “inhibition” value was over 100%.
In the case of O=C(O)COC(=O)Cc1ccccc1Nc1c(Cl)cccc1Cl [Aceclofenac], the “inhibition” value is reported as 92.6%.
Cc1cnc(NC(=O)C2=C(O)c3ccccc3S(=O)(=O)N2C)s1 [Meloxicam] was tested, and the “inhibition” value was 16.4%.
With O=C(O)CCCc1ccccc1 [Sodium Phenylbutyrate] the “inhibition” value was -23%.
CC1(C)O[C@@H]2C[C@H]3[C@@H]4CCC5=CC(=O)C=C[C@]5(C)[C@@]4(F)[C@@H](O)C[C@]3(C)[C@]2(C(=O)CO)O1 [Triamcinolone Acetonide] was tested, and the “inhibition” value was 39.4%.
With C[C@H]1CN(C[C@H](Cc2ccccc2)C(=O)NCC(=O)O)CC[C@@]1(C)c1cccc(O)c1 [Alvimopan dihydrate] the “inhibition” value was 15.5%.
In the case of Cc1nnc(NS(=O)(=O)c2ccc(N)cc2)s1 [Sulfamethizole], the “inhibition” value is reported as -10.3%.
In the case of COc1cc(NS(C)(=O)=O)ccc1Nc1c2ccccc2nc2ccccc12 [Amsacrine hydrochloride], the “inhibition” value is reported as 96.3%.
With O=C1C2CC3CC1CC(O)(C3)C2 [Idramantone] the “inhibition” value was 17.6%.
With CCN1CCN(c2cc3c(cc2F)c(=O)c(C(=O)O)cn3C2CC2)CC1 [Enrofloxacin] the “inhibition” value was 22.3%.
With CO/N=C(\C(=O)N[C@@H]1C(=O)N2C(C(=O)O)=C(CSc3nc(=O)c(O)nn3C)CS[C@H]12)c1csc(N)n1 [Ceftriaxone Sodium] the “inhibition” value was over 100%.
In the case of CO/N=C(\C(=O)N[C@@H]1C(=O)N2C(C(=O)O)=C(CSc3nc(=O)c(O)nn3C)CS[C@H]12)c1csc(N)n1 [Ceftriaxone Sodium Trihydrate], the “inhibition” value is reported as 0.683%.
With NCCCC[C@H](N[C@@H](CCc1ccccc1)C(=O)O)C(=O)N1CCC[C@H]1C(=O)O [Lisinopril] the “inhibition” value was 63.8%.
CC(C)(C)NC[C@H](O)COc1nsnc1N1CCOCC1 [Timolol Maleate] was tested, and the “inhibition” value was -28.4%.
In the case of Cc1ccc(C(=O)Nc2ccc(CN3CCN(C)CC3)c(C(F)(F)F)c2)cc1C#Cc1cnc2cccnn12, the “inhibition” value is reported as -15%.
With O=C(Nc1cccc2c(=O)cc(-c3nnn[nH]3)oc12)c1ccc(OCCCCc2ccccc2)cc1 [Pranlukast] the “inhibition” value was 11.6%.
For CCOC(=O)[C@H](CCc1ccccc1)N[C@H]1CCc2ccccc2N(CC(=O)O)C1=O [Benazepril HCl], the “inhibition” value was 23.4%.
In the case of COC1=C(OC)C(=O)C(CCCCCCCCCCO)=C(C)C1=O [Idebenone], the “inhibition” value is reported as 29%.
In the case of CC(COc1ccccc1)N(CCCl)Cc1ccccc1 (stereo not given) [Phenoxybenzamine HCl], the “inhibition” value is reported as 3.26%.
With Nc1ncn([C@@H]2O[C@H](CO)[C@@H](O)[C@H]2O)c(=O)n1 [Azacitidine] the “inhibition” value was 25.9%.
COc1ccc(CN(CCN(C)C)c2ccccn2)cc1 [Pyrilamine Maleate] was tested, and the “inhibition” value was -0.91%.
For CCCNC(C)C(=O)Nc1ccccc1C (stereo not given) [Prilocaine], the “inhibition” value was -0.0584%.
For CCCNC(C)C(=O)Nc1ccccc1C (stereo not given) [Prilocaine hydrochloride], the “inhibition” value was 0.331%.
For COc1cc(/C=C/C(=O)N2CCN(CC(=O)N3CCCC3)CC2)cc(OC)c1OC [Cinepazide maleate], the “inhibition” value was 13.4%.
With Cc1c(-c2ccnn2C)cc(C(=O)NCc2ccc(S(C)(=O)=O)cn2)c(=O)n1-c1cccc(C(F)(F)F)c1 [Alvelestat (AZD9668)] the “inhibition” value was 1.45%.
With CC(=O)c1ccc(S(=O)(=O)NC(=O)NC2CCCCC2)cc1 [Acetohexamide] the “inhibition” value was 32.5%.
In the case of CCCCC[C@H](O)/C=C/[C@@H]1[C@@H](C/C=C\CCCC(=O)O)[C@@H](O)C[C@H]1O [Dinoprost tromethamine], the “inhibition” value is reported as 9.12%.
For CCOC(=O)c1ccc(OC(=O)CCCCCNC(=N)N)cc1 [Gabexate Mesylate], the “inhibition” value was 4.91%.
For O=C(NC1CCN(CCCCC2(C(=O)NCC(F)(F)F)c3ccccc3-c3ccccc32)CC1)c1ccccc1-c1ccc(C(F)(F)F)cc1 [Lomitapide], the “inhibition” value was over 100%.
For O=C(NC1CCN(CCCCC2(C(=O)NCC(F)(F)F)c3ccccc3-c3ccccc32)CC1)c1ccccc1-c1ccc(C(F)(F)F)cc1 [Lomitapide Mesylate], the “inhibition” value was over 100%.
For CCCN[C@H]1CCc2nc(N)sc2C1 [Pramipexole dihydrochloride], the “inhibition” value was 24.8%.
With CCCN[C@H]1CCc2nc(N)sc2C1 [Pramipexole 2HCl Monohydrate] the “inhibition” value was 43.5%.
CCCN[C@H]1CCc2nc(N)sc2C1 [Pramipexole] was tested, and the “inhibition” value was 7.21%.
